Experimental data published in PMC3909270, “The basic keratin 10-binding domain of the virulence-associated pneumococcal serine-rich protein PsrP adopts a novel MSCRAMM fold” (Open Biology, 2014).
These are yes or no findings as the source states them, for the method shown. Some results given as binding are weak or reduced against the parent protein; the word gives no strength.

Sequences of proteins named here, by UniProt entry; tags and fusion partners are left off. Residues count along the entry.
UniProt A0A0H2URK1, residues 186-384: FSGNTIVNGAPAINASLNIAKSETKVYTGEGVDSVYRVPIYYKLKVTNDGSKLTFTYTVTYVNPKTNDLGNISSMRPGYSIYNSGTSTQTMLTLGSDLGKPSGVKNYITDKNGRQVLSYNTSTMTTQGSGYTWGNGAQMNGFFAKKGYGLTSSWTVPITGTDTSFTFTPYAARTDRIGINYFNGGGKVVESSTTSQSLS

Assays:
[1] = target: KRT10 head-rod-1A domain (KRT10-HRD) (human) (UniProt P13645); assay: ELISA; KRT10 constructs coated on Nunc C96 plates (coating adjusted to KRT10-TRD at about 5 µg/ml), 2% BSA block; STII-BR_(187–385) 23 nM to 3 µM in PBS; detected with Strep-Tactin HRP; four-parameter logistic fit; both purified
[2] = target: full-length keratin-10 (KRT10-FL) (human) (UniProt P13645); assay: pull-down; KRT10-FL immobilised on Ni-NTA magnetic agarose beads; 100 µl of 25 µM STII-BR_(187–385) incubated 1 h in 20 mM HEPES, 50 mM NaCl, 10% glycerol, pH 7.5; washes with 300 mM NaCl, 20 mM imidazole, 0.2% Triton X-100; SDS-PAGE of beads; both purified
[3] = target: T1, KRT10 tail-rod-2B domain (KRT10-TRD) (human) (UniProt P13645); assay: ELISA; KRT10-TRD coated; WT-BR_(187–385) and mutated variants at a single concentration of 1 µM; detected with Strep-Tactin HRP; normalised intensities; both purified
T1 sequence: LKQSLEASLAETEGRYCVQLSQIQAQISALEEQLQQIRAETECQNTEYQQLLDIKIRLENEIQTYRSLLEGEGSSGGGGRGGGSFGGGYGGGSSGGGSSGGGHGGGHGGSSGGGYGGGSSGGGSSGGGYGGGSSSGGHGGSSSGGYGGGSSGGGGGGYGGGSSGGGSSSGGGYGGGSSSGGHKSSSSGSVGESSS

“Strep-Tag-II BR_(187–385) (KRT10-binding domain of the pneumococcal serine-rich repeat protein PsrP) (from UniProt A0A0H2URK1 186-384) (domain or fragment)” was tested, and the binding [1] was “binds weakly”, the binding [2] was “binds” and the binding [3] was “binds”.
